From PMC12331947, “Activation of AKT via a dual mechanism enhances the susceptibility of melanoma cells to glucose deprivation” (Cell Death & Disease, 2025) come the findings set out here.

Protein sequences, listed by entry. Tags and fused reporters are not part of them.
UniProt Q9Y243: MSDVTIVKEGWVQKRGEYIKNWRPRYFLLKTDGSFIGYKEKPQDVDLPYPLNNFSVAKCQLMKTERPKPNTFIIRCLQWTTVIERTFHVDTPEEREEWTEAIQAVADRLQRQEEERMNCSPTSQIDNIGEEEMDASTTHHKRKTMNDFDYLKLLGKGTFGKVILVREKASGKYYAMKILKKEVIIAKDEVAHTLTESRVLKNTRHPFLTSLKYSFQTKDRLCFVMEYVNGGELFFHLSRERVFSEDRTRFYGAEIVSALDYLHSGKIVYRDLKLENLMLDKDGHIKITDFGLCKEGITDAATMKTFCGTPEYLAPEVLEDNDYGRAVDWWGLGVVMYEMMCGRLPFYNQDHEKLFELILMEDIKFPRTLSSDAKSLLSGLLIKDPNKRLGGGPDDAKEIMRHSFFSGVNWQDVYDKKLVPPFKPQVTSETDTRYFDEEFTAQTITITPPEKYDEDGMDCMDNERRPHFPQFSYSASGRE

In test [1] the target is T1, PDK1 (exogenous, HA- or Flag-tagged) (human), O15530.
T1 chain: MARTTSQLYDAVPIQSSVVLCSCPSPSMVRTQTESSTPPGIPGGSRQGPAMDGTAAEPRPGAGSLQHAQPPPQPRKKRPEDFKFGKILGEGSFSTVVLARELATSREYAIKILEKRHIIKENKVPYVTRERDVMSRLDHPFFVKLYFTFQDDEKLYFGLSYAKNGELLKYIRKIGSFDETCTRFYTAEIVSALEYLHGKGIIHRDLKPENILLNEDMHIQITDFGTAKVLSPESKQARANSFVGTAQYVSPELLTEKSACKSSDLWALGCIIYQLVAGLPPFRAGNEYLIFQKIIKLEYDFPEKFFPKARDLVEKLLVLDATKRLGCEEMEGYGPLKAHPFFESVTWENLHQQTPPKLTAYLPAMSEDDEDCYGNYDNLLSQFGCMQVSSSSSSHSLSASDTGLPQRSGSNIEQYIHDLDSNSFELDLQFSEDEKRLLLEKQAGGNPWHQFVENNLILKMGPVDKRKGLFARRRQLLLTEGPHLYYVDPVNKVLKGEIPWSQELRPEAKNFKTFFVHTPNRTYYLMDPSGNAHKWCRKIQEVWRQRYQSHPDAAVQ
In words: co-IP; PDK1-HA with PDK1-Flag in A375 cells, glucose-free medium for 3 h, with or without NAC (5 mM) or GSH (2.5 mM); Triton X-100 lysis buffer, protein A/G agarose, 3 h at 4 °C. The note with it: remark: other sources report otherwise.

In test [2] the target is AKT3 (human) (UniProt Q9Y243). In words: co-IP; PDK1 or PDK1^C21/23S with AKT3, control or glucose-deprived cells; Triton X-100 lysis buffer, protein A/G agarose, 3 h at 4 °C.
The target of test [3] is PDK1^C21/23S (human) (UniProt O15530). In words: non-reducing gel and immunoblot; A375 cells in glucose-free medium for 3 h, with or without NAC (5 mM) or GSH (2.5 mM); PDK1 monomer and dimer bands under non-reducing conditions.
For test [4] the target is unchanged. In words: co-IP; PDK1-HA with PDK1-Flag in A375 cells, glucose-free medium for 3 h, with or without NAC (5 mM) or GSH (2.5 mM); Triton X-100 lysis buffer, protein A/G agarose, 3 h at 4 °C.

Substitutions are numbered along the chain they refer to. No constants are given. Whether binding was seen depends on the method and setting. For some of these results: Binding seen in cells or lysates may run through a third protein. Some entries that bind do so weakly or less than the wild type. For some of these results: Sequences can lack the tags named with a protein.

B1: PDK1 (exogenous, HA- or Flag-tagged), O15530 1-556 (enzyme)
chain: T1 chain
In the case of B1, the binding result in test [1] is “binds”.

B2: PDK1 (exogenous, HA- or Flag-tagged) (enzyme, UniProt O15530 1-556)
chain: T1 chain
For B2, the binding result in test [2] was “binds”.

B3: PDK1^C21/23S (enzyme, UniProt O15530 1-556)
chain: T1 chain with C21S, C23S
Take B3: the binding entry in test [3] and in test [4] was “no binding” each time.
